Article PMC6527565
No constants are given. Whether binding was seen depends on the method and setting. In cells and extracts the contact can be indirect. Some binding calls cover weakened binding; strength is not graded here. For some assays here: Sequences can lack the tags named with a protein.

Amino acid sequences for entries named in this document (tags omitted).
UniProt P42224: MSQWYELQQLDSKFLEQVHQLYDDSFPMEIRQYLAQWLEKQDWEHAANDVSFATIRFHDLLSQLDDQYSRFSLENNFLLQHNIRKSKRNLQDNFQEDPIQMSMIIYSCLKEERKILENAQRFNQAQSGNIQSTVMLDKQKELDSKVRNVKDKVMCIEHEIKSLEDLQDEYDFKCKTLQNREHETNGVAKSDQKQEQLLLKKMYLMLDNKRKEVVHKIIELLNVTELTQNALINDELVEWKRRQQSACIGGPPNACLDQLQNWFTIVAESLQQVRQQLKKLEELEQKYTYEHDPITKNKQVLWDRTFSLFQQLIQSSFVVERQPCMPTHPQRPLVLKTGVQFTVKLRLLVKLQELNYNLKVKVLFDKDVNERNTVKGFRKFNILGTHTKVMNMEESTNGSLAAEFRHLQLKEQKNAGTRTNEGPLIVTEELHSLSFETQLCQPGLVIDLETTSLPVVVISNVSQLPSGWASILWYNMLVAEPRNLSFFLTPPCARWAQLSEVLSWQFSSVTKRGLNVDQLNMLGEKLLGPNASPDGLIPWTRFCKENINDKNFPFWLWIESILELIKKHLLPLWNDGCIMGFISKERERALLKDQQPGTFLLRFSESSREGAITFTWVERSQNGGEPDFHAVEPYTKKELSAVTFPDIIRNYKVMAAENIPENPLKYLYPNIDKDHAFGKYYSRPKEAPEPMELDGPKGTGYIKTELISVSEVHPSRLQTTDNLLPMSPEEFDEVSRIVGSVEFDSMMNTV

Columns and labels:
GST-STAT1 protein = GST-STAT1 protein (UniProt P42224); experiment: pull-down; recombinant GST-STAT1 from E. coli incubated with lysate of A375 cells expressing V5-LNK; only the target purified
[1] = biological target: STAT1 (human (endogenous in melanoma cells; cell line not named)) (UniProt P42224); experiment: co-IP; melanoma cells treated with IFN gamma (2000 U/ml) for 30 min; lysates in M-PER; precipitation with LNK antibody (Santa Cruz A-12, sc-393709) or STAT1 antibody (Cell Signaling 9172); western blot
[2] = biological target: LNK (SH2B3) (human (endogenous in melanoma cells; cell line not named)) (UniProt Q9UQQ2); experiment: as above
[3] = biological target: GST-SH2-LNK, GST protein fused to the SH2 domain of LNK (UniProt Q9UQQ2); experiment: pull-down; recombinant GST fusion of LNK PH or SH2 domain (or GST control) incubated with lysate of HEK293T cells transfected with Flag tag STAT1; only the target purified
[4] = biological target: T1, GST-PH-LNK, GST protein fused to the PH domain of LNK (UniProt Q9UQQ2); experiment: as above
T1 sequence: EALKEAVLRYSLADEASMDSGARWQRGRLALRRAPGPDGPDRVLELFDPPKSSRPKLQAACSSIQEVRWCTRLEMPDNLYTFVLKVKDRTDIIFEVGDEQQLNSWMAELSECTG

Substance: V5-LNK (from UniProt Q9UQQ2 1-575)
- binding (GST-STAT1 protein): binds

Substance: LNK (SH2B3) (from UniProt Q9UQQ2 1-575)
- binding [1]: binds

Substance: STAT1 (from UniProt P42224 1-750)
- binding [2]: binds

Substance: Flag tag STAT1 (from UniProt P42224 1-750)
- binding [3]: binds
- binding [4]: binds
